Measured values published in PMC7160454.
Results are given in words; binding and its absence hold for the method and conditions named. Some results given as binding are weak or reduced against the parent protein; the word gives no strength. Tags and fused reporters may be left off the sequences shown.

T1: GST-mMGP (mouse matrix Gla protein, residues 20-104, without the signal peptide) (mouse) (UniProt P19788)
T1 sequence: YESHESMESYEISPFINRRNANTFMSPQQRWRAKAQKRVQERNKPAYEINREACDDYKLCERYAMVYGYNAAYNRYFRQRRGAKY

T2: Gal4-mMGP (mMGP (20-104) fused to GAL4) (mouse) (UniProt P19788)
T2 sequence: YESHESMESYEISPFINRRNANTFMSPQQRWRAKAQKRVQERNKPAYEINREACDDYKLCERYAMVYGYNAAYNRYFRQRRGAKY


Experiments:
[1] = target: T1, GST-mMGP (mouse matrix Gla protein, residues 20-104, without the signal peptide) (mouse); experiment: pull-down; immobilized GST-mMGP (10 ug) with recombinant mBMP-4 or mBMP-2 (50 ng) in BC150 buffer with 0.1% NP-40 and 1 mM beta-mercaptoethanol, 4 °C, 1 h; eluted in 0.3% sarkosyl, western blot; both purified
[2] = target: T2, Gal4-mMGP (mMGP (20-104) fused to GAL4) (mouse); experiment: two-hybrid; mammalian two-hybrid: pGal4-mMGP (10 ng) and pVP16-mBMP-4 or pVP16-mBMP-2 (150 ng) with 5 x GAL4-LUC reporter and Renilla control, Lipofectamine 2000, luciferase read-out
[3] = target: T1, GST-mMGP (mouse matrix Gla protein, residues 20-104, without the signal peptide) (mouse); experiment: condition: only with the anti-MGP antibody at the same molar ratio as GST-mMGP; pull-down; GST-mMGP and mBMP-4 incubated without or together with the anti-MGP antibody (goat polyclonal) at the same molar ratio as GST-mMGP; both purified
[4] = target: T1, GST-mMGP (mouse matrix Gla protein, residues 20-104, without the signal peptide) (mouse); experiment: pull-down; GST-mMGP and mBMP-4 incubated without or together with the anti-MGP antibody (goat polyclonal) at the same molar ratio as GST-mMGP; both purified

| Binder | binding [1] | binding [2] | binding [3] | binding [4] |
| --- | --- | --- | --- | --- |
| VP16-mBMP-2 (secreted form of mBMP-2, residues 281-394, fused to the VP16 activation domain) (domain or fragment, UniProt P21274 281-394) QAKHKQRKRLKSSCKRHPLYVDFSDVGWNDWIVAPPGYHAFYCHGECPFPLADHLNSTNHAIVQTLVNSVNSKIPKACCVPTELSAISMLYLDENEKVVLKNYQDMVVEGCGCR |  | binds |  |  |
| recombinant mBMP-4 (mouse bone morphogenetic protein-4) (ligand, UniProt P21275 293-408) SPKHHPQRSRKKNKNCRRHSLYVDFSDVGWNDWIVAPPGYQAFYCHGDCPFPLADHLNSTNHAIVQTLVNSVNSSIPKACCVPTELSAISMLYLDEYDKVVLKNYQEMVVEGCGCR | binds |  | no binding | binds |

More lines, now with the values ahead:

| binding [1] | binding [2] | binding [3] | binding [4] | Binder |
| --- | --- | --- | --- | --- |
| binds |  |  |  | recombinant mBMP-2 (mouse bone morphogenetic protein-2) (ligand, UniProt P21274 281-394) QAKHKQRKRLKSSCKRHPLYVDFSDVGWNDWIVAPPGYHAFYCHGECPFPLADHLNSTNHAIVQTLVNSVNSKIPKACCVPTELSAISMLYLDENEKVVLKNYQDMVVEGCGCR |
|  | binds |  |  | VP16-mBMP-4 (secreted form of mBMP-4, residues 293-408, fused to the VP16 activation domain) (domain or fragment, UniProt P21275 293-408) SPKHHPQRSRKKNKNCRRHSLYVDFSDVGWNDWIVAPPGYQAFYCHGDCPFPLADHLNSTNHAIVQTLVNSVNSSIPKACCVPTELSAISMLYLDEYDKVVLKNYQEMVVEGCGCR |
